Measurements: article PMC11085366
No constants are given. Whether binding was seen depends on the method and setting. Binding seen in cells or lysates may run through a third protein. Some results given as binding are weak or reduced against the parent protein; the word gives no strength. Sequences can lack the tags named with a protein. Each block holds one molecule with its values, some of them ahead of it.

Experiments:
[1] = molecular target: T1, Caprin1 fragment 351–390 in pCS2-GFP-Myc (human); assay: co-IP; HEK293T cells transfected with expression plasmids; lysates (50 mM Tris HCl pH 7.6, 150 mM NaCl, 0.5% NP40, 1 mM EDTA) precipitated with anti-Myc antibody and protein A/G beads at 4 °C; Western blot
T1 sequence: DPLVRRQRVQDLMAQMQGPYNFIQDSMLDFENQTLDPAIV

[2] = molecular target: Ras-GTPase-activating protein SH3 domain-binding protein 1 (G3BP1), expressed from pCS2-Flag or pCS2-Myc (human) (UniProt Q13283); assay: co-IP; unstressed HEK293T cells transfected with expression plasmids; lysates (50 mM Tris HCl pH 7.6, 150 mM NaCl, 0.5% NP40, 1 mM EDTA) precipitated with anti-Flag antibody and protein A/G beads at 4 °C; Western blot
[3] = molecular target: GST-G3BP1 (human) (UniProt Q13283); assay: pull-down; GST-G3BP1 on glutathione beads incubated with lysates of transfected 293T cells at 4 °C for 1 h; Western blot; only the target purified

- binding [1]: binds
Molecule: Ras-GTPase-activating protein SH3 domain-binding protein 1 (G3BP1), expressed from pCS2-Flag or pCS2-Myc (from UniProt Q13283 1-466)

- binding [2]: binds
B1: Ras-GTPase-activating protein SH3 domain-binding protein 2 (G3BP2), expressed from pCS2-Flag or pCS2-Myc (protein, UniProt Q9UN86 1-482)
chain: MVMEKPSPLLVGREFVRQYYTLLNKAPEYLHRFYGRNSSYVHGGVDASGKPQEAVYGQNDIHHKVLSLNFSECHTKIRHVDAHATLSDGVVVQVMGLLSNSGQPERKFMQTFVLAPEGSVPNKFYVHNDMFRYEDEVFGDSEPELDEESEDEVEEEQEERQPSPEPVQENANSGYYEAHPVTNGIEEPLEESSHEPEPEPESETKTEELKPQVEEKNLEELEEKSTTPPPAEPVSLPQEPPKAFSWASVTSKNLPPSGTVSSSGIPPHVKAPVSQPRVEAKPEVQSQPPRVREQRPRERPGFPPRGPRPGRGDMEQNDSDNRRIIRYPDSHQLFVGNLPHDIDENELKEFFMSFGNVVELRINTKGVGGKLPNFGFVVFDDSEPVQRILIAKPIMFRGEVRLNVEEKKTRAARERETRGGGDDRRDIRRNDRGPGGPRGIVGGGMMRDRDGRGPPPRGGMAQKLGSGRGTGQMEGRFTGQRR

- binding [3]: binds
Molecule: DPLVRRQRVQDLMAQMQGPYNFIQDSMLDFENQTLDPAIV (domain or fragment) [Caprin1 fragment 351–390 in pCS2-GFP-Myc]

- binding [3]: binds
Molecule: DLMAQMQGPYNFIQDSMLDFENQTL (domain or fragment) [Caprin1 fragment 361–385 in pCS2-GFP-Myc]
